No dose or concentration is given here for some results.
Test system: HH signaling (HEK293a SHH+ conditioned media on SHH-Light2 cells)
Assay: Light2 dual-luciferase cell-based HH signaling assay (Firefly)
Details: from cell-signaling EC50 and clogDpH7.4

Row | SMILES | LLELight2
1 | C=CCNCC(=O)N1CCc2sccc2C1c1ccccc1 (stereo not drawn) [Compound 12, 2-(Allylamino)-1-(4-phenyl-6,7-dihydrothieno[3,2-c]pyridin-5(4H)-yl)ethan-1-one] | 3.29
2 | CC(C)CNCC(=O)N1CCc2ccccc2C1c1ccccc1 (stereo in doubt) [Compound 43, (R)-2-((2-Methylpropyl)amino)-1-(1-phenyl-3,4-dihydroisoquinolin-2(1H)-yl)ethan-1-one] | 4.18
3 | CC[C@H](C)CNCC(=O)N1CCc2sccc2C1c1cccc(C)n1 (stereo partly drawn) [Compound 23] | 4.41
4 | CCC(C)CNCC(=O)N1CCc2sccc2C1c1ccccn1 (stereo not drawn) [Compound 19, 2-(2-Methylbutylamino)-1-[4-(pyridin-2-yl)-6,7-dihydro-4H-thieno[3,2-c]pyridin-5-yl]ethanone] | 4.98
5 | CCC(C)CNCC(=O)N1CCc2sccc2C1c1cccc(C)n1 (stereo not drawn) [Compound 22] | 4.85
6 | CC(=O)N1CCc2sccc2C1c1ccccc1 (stereo not drawn) [Compound 5] | 2.46
7 | CCC(C)CNCC(=O)N1CCc2sccc2C1c1cccc(C)c1 (stereo not drawn) [Compound 17] | 3.17
8 | Cc1cccc([C@H]2c3ccsc3CCN2C(=O)CNCC(C)C)n1 [Compound 30] | 6.02
9 | C=CC(=O)N1CCc2sccc2C1c1cccc(C)c1 (stereo not drawn) [Compound 16] | 1.38
10 | Cc1cccc(C2c3ccsc3CCN2C(=O)CNCC(C)C)n1 (stereo not drawn) [Compound 24] | 4.95
11 | CCC(C)CNCC(=O)N1CCc2ccc(Cl)cc2C1c1ccccc1 (stereo not drawn) [Compound 45, 1-(7-Chloro-1-phenyl-3,4-dihydroisoquinolin-2(1H)-yl)-2-((2-methylbutyl)amino)ethan-1-one] | 2.25
12 | CC(=O)N1CCc2sccc2[C@@H]1c1cccc(C)n1 [Compound 29, (R)-1-(4-(6-Methylpyridin-2-yl)-6,7-dihydrothieno[3,2-c]pyridin-5(4H)-yl)ethan-1-one] | 3.86
13 | CC(C)CNCC(=O)N1CCc2ccccc2C1c1ccccc1 (stereo not drawn) [Compound 39, 2-((2-Methylpropyl)amino)-1-(1-phenyl-3,4-dihydroisoquinolin-2(1H)-yl)ethan-1-one] | 3.67
14 | CC(=O)N1CCc2sccc2C1c1cccc(C)n1 (stereo not drawn) [Compound 21] | 3.23
15 | Cc1cccc(C2c3ccsc3CCN2C(=O)CNCCC(C)C)n1 (stereo not drawn) [Compound 25] | 3.93
